This passage reports outcome results from PubChem BioAssay (EPA / NIEHS).

This list holds what a sample rich in hits left over. Inconclusive results are not listed. Calls of active or inactive are those of the source. How the source made its calls: active means hit-call score of the fitted dose curve at least 0.9, where 1 is the maximum; inconclusive means response in the unintended direction; inactive means score below 0.9.

The assay in a line: ACEA_AR_agonist_AUC_viability: ACEA Biosciences xCELLigence Real-Time Cell Analysis on Androgen Receptor Agonism for Viability (AID 2283775). The method in brief:
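Read-out is area under the impedance curve at 80 h post-dose in 22Rv1 cells, with DMSO as baseline and signal loss taken as reduced viability. Compounds ran in duplicate from 100 uM final.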
On to `O=S(=O)(O)c1ccc2ccccc2c1`, for which the compound was classed as inactive.

Regarding `C=C1C[C@]23C[C@@]1(O)CC[C@H]2[C@@]12C=C[C@H](O)[C@@](C)(C(=O)O1)[C@H]2[C@@H]3C(=O)O`, the result was inactive.

As to `CN(C)c1cccc(O)c1`, the compound was called inactive.

As to `O=C1NC(=O)c2ccccc21`, the compound was classed as inactive.

Turning to `C=CC(C)(O)CCC=C(C)C` (stereo not drawn), the result was inactive.

Regarding `ON=C1CCCCC1`, the result was inactive.

Take `CCC(=O)OC(C)(C)C1CC=C(C)CC1` (stereo not drawn): the call was inactive.

For `C1CCCNCC1`, the outcome was inactive.

For the compound `O=C(Cl)c1cccc(C(=O)Cl)c1`, the compound was classed as inactive.

As for `O=C(C=Cc1ccccc1)OCc1ccccc1`, the compound was classed as inactive.

In the case of `CCCCCCCCCCCC(=O)OCC(O)CO` (stereo not drawn), the compound was classed as inactive.

Take `CC1=NN(c2cc(Cl)c(S(=O)(=O)O)cc2Cl)C(=O)C1N=Nc1ccc(S(=O)(=O)O)cc1` (stereo not drawn): the compound was called inactive.

Regarding `C(=C(c1ccccc1)c1ccccc1)c1ccccc1`, the compound was classed as inactive.

For the compound `O=C(c1ccccc1)C(O)c1ccccc1` (stereo not drawn), the compound was called inactive.

Regarding `CC(=O)OCC(COC(C)=O)OC(C)=O`, the call was inactive.

On to `COCCOCCOCCOC`, for which the call was inactive.

Regarding `CC(=O)OC[C@H]1O[C@@](COC(C)=O)(O[C@H]2O[C@H](COC(C)=O)[C@@H](OC(C)=O)[C@H](OC(C)=O)[C@H]2OC(C)=O)[C@@H](OC(C)=O)[C@@H]1OC(C)=O`, the compound was called inactive.

For the compound `CCCCCCCCCCOS(=O)(=O)O`, the result was inactive.

Take `COC(=O)c1ccc(C)cc1C1=NC(C)(C(C)C)C(=O)N1` (stereo not drawn) (tested in a mixture with another compound): the compound was called inactive.

As to `O=C(O)c1cccc(C(=O)O)n1`, the compound was called inactive.

Consider `CCCC1CCC(=O)O1` (stereo not drawn), for which the compound was called inactive.

Turning to `CC/C=C\CCO`, the result was inactive.

`CC(C)=CCCC(C)=CC#N`: the call was inactive.
